Data from paper doi:10.1101/2024.11.14.623552.
These are yes or no findings as the source states them, for the method shown. Binding seen in cells or lysates may run through a third protein. Binding can be weak; no strength is given.

Molecular target: T1, Kibra (Kib) (Drosophila) (UniProt Q9VFG8)
T1 sequence: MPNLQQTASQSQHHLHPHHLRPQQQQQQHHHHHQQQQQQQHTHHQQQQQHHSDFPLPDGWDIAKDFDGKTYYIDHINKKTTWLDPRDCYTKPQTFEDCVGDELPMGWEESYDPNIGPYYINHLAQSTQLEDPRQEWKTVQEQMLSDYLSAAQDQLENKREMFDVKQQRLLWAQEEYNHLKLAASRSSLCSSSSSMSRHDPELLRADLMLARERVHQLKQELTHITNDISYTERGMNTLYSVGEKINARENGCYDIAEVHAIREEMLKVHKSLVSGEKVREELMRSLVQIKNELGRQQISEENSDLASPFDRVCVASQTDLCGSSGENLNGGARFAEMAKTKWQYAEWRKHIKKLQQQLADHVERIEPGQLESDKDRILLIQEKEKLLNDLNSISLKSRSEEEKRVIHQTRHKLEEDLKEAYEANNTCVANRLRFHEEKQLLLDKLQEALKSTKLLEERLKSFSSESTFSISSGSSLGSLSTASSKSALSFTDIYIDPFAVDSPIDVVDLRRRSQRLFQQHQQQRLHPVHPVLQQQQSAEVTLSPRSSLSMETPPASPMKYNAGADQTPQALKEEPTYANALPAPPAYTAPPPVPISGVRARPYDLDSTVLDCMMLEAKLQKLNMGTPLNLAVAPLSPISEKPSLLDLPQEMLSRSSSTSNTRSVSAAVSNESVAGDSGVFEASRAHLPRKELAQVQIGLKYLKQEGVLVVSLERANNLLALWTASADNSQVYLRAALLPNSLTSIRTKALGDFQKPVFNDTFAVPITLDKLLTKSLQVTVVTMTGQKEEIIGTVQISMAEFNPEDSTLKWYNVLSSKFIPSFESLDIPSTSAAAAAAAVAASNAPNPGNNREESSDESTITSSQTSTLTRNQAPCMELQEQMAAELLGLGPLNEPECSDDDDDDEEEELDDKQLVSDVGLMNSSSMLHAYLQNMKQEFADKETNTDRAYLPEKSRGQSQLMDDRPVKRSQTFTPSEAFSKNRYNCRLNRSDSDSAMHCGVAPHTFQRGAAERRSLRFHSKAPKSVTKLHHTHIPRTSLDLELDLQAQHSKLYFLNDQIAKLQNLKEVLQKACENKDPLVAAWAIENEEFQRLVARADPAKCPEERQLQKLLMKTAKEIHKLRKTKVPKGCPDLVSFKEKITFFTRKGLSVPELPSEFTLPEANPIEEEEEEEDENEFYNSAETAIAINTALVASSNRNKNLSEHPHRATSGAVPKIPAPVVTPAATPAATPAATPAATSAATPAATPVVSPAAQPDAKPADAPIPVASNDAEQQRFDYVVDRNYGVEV
Assay: co-IP

binding: binds
Substance: Well-rounded (Wrd) (Drosophila)
